Molecules are shown by their SMILES. Where two headings read alike, the source gives them in different places.

Data set [1] can be described thus: approximate limit of quantitation (LOQ) by the single-configuration LC-MS method.
Data set [2] in a line: sensitivity of electrospray ionization (ESI) relative to APCI.
[3] abbreviates: LC-MS, Cyclone P clean-up column plus PFP analytical column, ammonium formate buffers.
Where [4] appears, read: sensitivity ratio ESI relative to APCI.

Turning to `CCCCCc1cc(O)c2c(c1)OC(C)(C)[C@@H]1CCC(C(=O)O)=C[C@@H]21` [11-norDelta-9-THC-COOH], the “Approx [LOQ]” value in data set [1] worked out at 5 ng/mL. The molecule also came in with an ESI/APCI in data set [2] of 0.53.
For `C=C1CC[C@H](O)C/C1=C/C=C1\CCC[C@]2(C)[C@@H]([C@H](C)/C=C/[C@H](C)C(C)(C)O)CC[C@@H]12` [25OH vitamin D2, 25-hydroxyvitamin D2] the same measures were 10 ng/mL and 8.81.
For `C=C1CC[C@H](O)C/C1=C/C=C1\CCC[C@]2(C)[C@@H]([C@H](C)CCCC(C)(C)O)CC[C@@H]12` [25OH vitamin D3, 25-hydroxyvitamin D3], in that order: 10 ng/mL and 3.32.
Regarding `CC(N)Cc1ccccc1` (stereo not shown) [Amphetamine], in data set [1], the “Approx [LOQ]” value is given as 50 ng/mL.
Still for that read-out and setting: the result for `C[C@]12CCC(=O)C=C1CC[C@@H]1[C@@H]2CC[C@]2(C)C(=O)CC[C@@H]12` [Androstenedione] reads 0.01 ng/mL.
In the case of `CN1[C@H]2CC[C@@H]1[C@@H](C(=O)O)[C@@H](OC(=O)c1ccccc1)C2` [Benzoylecgonine], the “Approx [LOQ]” value in data set [1] was 0.05 ng/mL. The molecule also displayed an ESI/APCI in data set [2] of 12.2.
Regarding `CS(=O)(=O)OCCCCOS(C)(=O)=O` [Busulfan], the “Approx [LOQ]” value in data set [1] (setting [3]) worked out at 1 ng/mL.
`COc1ccc2c3c1O[C@H]1[C@@H](O)C=C[C@H]4[C@@H](C2)N(C)CC[C@@]341` [Codeine]: the “Approx [LOQ]” value in data set [1] worked out at 2 ng/mL.
Turning to `C[C@]12CCC(=O)C=C1CC[C@@H]1[C@@H]2[C@@H](O)C[C@@]2(C)[C@H]1CC[C@]2(O)C(=O)CO` [Cortisol (hydrocortisone)], the “Approx [LOQ]” value in data set [1] (setting [3]) is 0.05 ng/mL. Besides, the ESI/APCI in data set [2] (setting [4]) came out at 54.5.
`C[C@]12CCC(=O)C=C1CC[C@@H]1[C@@H]2C(=O)C[C@@]2(C)[C@H]1CC[C@]2(O)C(=O)CO` [Cortisone]: the “Approx [LOQ]” value in data set [1] is 0.05 ng/mL.
Regarding `CCCCCc1cc(O)c2c(c1)OC(C)(C)[C@@H]1CCC(C)=C[C@@H]21` [Delta9-THC], the “Approx [LOQ]” value in data set [1] is recorded as 5 ng/mL. Further, the ESI/APCI in data set [2] was 0.75.
Regarding `COc1ccc2c3c1O[C@H]1[C@@H](O)CC[C@H]4[C@@H](C2)N(C)CC[C@@]341` [Dihydrocodeine], the “Approx [LOQ]” value in data set [1] came to 0.2 ng/mL.
For the molecule `CC(=O)O[C@@]12CO[C@@H]1C[C@H](O)[C@@]1(C)C(=O)[C@H](O)C3=C(C)[C@@H](OC(=O)[C@H](O)[C@@H](NC(=O)OC(C)(C)C)c4ccccc4)C[C@@](O)([C@@H](OC(=O)c4ccccc4)[C@H]21)C3(C)C` [Docetaxel], the “Approx [LOQ]” value in data set [1] (setting [3]) turned out to be 0.5 ng/mL.
Take `CO[C@H]1C[C@@H]2CC[C@@H](C)[C@@](O)(O2)C(=O)C(=O)N2CCCC[C@H]2C(=O)O[C@H]([C@H](C)C[C@@H]2CC[C@@H](OCCO)[C@H](OC)C2)CC(=O)[C@H](C)/C=C(\C)[C@@H](O)[C@@H](OC)C(=O)[C@H](C)C[C@H](C)/C=C/C=C/C=C/1C` [Everolimus]: the “Approx [LOQ]” value in data set [1] (setting [3]) was determined as 0.05 ng/mL. The ESI/APCI in data set [2] (setting [4]) stood at 29.2.
For `COc1ccc2c3c1O[C@H]1C(=O)CC[C@H]4[C@@H](C2)N(C)CC[C@]314` [Hydrocodone], in data set [1], the “Approx [LOQ]” value came out at 2 ng/mL.
`CC(=O)[C@@]1(O)CC[C@H]2[C@@H]3CCC4=CC(=O)CC[C@]4(C)[C@H]3CC[C@@]21C` [Hydroxyprogesterone]: in data set [1], the “Approx [LOQ]” value was 0.01 ng/mL.
Still for that read-out and setting: the result for `CC(N)Cc1ccc2c(c1)OCO2` (stereo not shown) [MDA] reads 50 ng/mL; that for `CNC(C)Cc1ccc2c(c1)OCO2` (stereo not shown) [MDMA], 50 ng/mL.
Consider `CCC(=O)C(CC(C)N(C)C)(c1ccccc1)c1ccccc1` (stereo not shown) [Methadone], for which the “Approx [LOQ]” value in data set [1] was determined as 5 ng/mL. Besides, in data set [2], the ESI/APCI is reported as 14.5.
For the molecule `CN[C@@H](C)Cc1ccccc1` [Methamphetamine], the “Approx [LOQ]” value in data set [1] amounted to 50 ng/mL.
With `CN(Cc1cnc2nc(N)nc(N)c2n1)c1ccc(C(=O)N[C@@H](CCC(=O)O)C(=O)O)cc1` [Methotrexate], the “Approx [LOQ]” value in data set [1] (setting [3]) came out at 0.5 ng/mL.
Regarding `CN1CC[C@]23c4c5ccc(O)c4O[C@H]2[C@@H](O)C=C[C@H]3[C@H]1C5` [Morphine], the “Approx [LOQ]” value in data set [1] stood at 20 ng/mL.
On to `COc1ccc2c3c1O[C@H]1[C@@H](O)C=C[C@H]4[C@@H](C2)NCC[C@@]341` [Norcodeine], for which the “Approx [LOQ]” value in data set [1] is on record as 2 ng/mL.
Turning to `COc1ccc2c3c1O[C@H]1C(=O)CC[C@@]4(O)[C@@H](C2)NCC[C@]314` [Noroxycodone], the “Approx [LOQ]” value in data set [1] turned out to be 2 ng/mL.
`COc1ccc2c3c1O[C@H]1C(=O)CC[C@@]4(O)[C@@H](C2)N(C)CC[C@]314` [Oxycodone]: the “Approx [LOQ]” value in data set [1] stood at 2 ng/mL.
`CN1CC[C@]23c4c5ccc(O)c4O[C@H]2C(=O)CC[C@@]3(O)[C@H]1C5` [Oxymorphone]: the “Approx [LOQ]” value in data set [1] came to 20 ng/mL.
With `c1ccc(C2(N3CCCCC3)CCCCC2)cc1` [Phencyclidine], in data set [1], the “Approx [LOQ]” value came to 0.5 ng/mL.
`CC(=O)[C@H]1CC[C@H]2[C@@H]3CCC4=CC(=O)CC[C@]4(C)[C@H]3CC[C@]12C` [Progesterone]: the “Approx [LOQ]” value in data set [1] (setting [3]) was found to be 0.01 ng/mL.
Turning to `C=CC[C@@H]1/C=C(\C)C[C@H](C)C[C@H](OC)[C@H]2O[C@@](O)(C(=O)C(=O)N3CCCC[C@H]3C(=O)O[C@H](/C(C)=C/[C@@H]3CC[C@@H](O)[C@H](OC)C3)[C@H](C)[C@@H](O)CC1=O)[C@H](C)C[C@@H]2OC` [Tacrolimus], in data set [1] (setting [3]), the “Approx [LOQ]” value came to 0.05 ng/mL. Further, the ESI/APCI in data set [2] (setting [4]) was 21.7.
As for `CC[C@@H](c1cccc(O)c1)[C@@H](C)CN(C)C` [Tapentadol], the “Approx [LOQ]” value in data set [1] worked out at 0.5 ng/mL. Also, the ESI/APCI in data set [2] came out at 7.1.
Turning to `C[C@]12CC[C@H]3[C@@H](CCC4=CC(=O)CC[C@@]43C)[C@@H]1CC[C@@H]2O` [Testosterone], the “Approx [LOQ]” value in data set [1] turned out to be 0.05 ng/mL. For the same molecule, in data set [2], the ESI/APCI was determined as 16.4.
In the case of `COc1cccc(C2(O)CCCCC2CN(C)C)c1` (stereo not shown) [Tramadol], the “Approx [LOQ]” value in data set [1] is given as 5 ng/mL.
